Laboratory results taken from PubChem BioAssay (Tox21).
Values joined by “and” are separate entries in the source; they are usually repeats but may differ in a detail not shown here. Equal entries are not always repeated. The shares of active, inactive and inconclusive entries below differ from those in the screen. Potencies of inconclusive entries are doubtful fits and often do not repeat. Active and inactive are the calls of the source. Calls come from the whole dose curve.

experiment: p53 small molecule agonists, cell-based qHTS assay with rat liver microsomes: qHTS cell viability counter screen (AID 1963580); conditions: p53RE-bla HCT-116 + rat microsomes, ATP viability, 16 h; series mostly up to 66 µM
How it was run: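 Rat liver microsome (0.5 mg/mL final) and NADPH (0.5 mg/mL final) co-incubation with compounds for 16 h at 37 C on HCT-116 p53RE-bla cells; cytotoxicity taken from intracellular ATP luminescence.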
Note: nearly all actives have a fitted effect of over 45% in size.
Potency is the fitted concentration of half-maximal effect.

Structure (SMILES) | Potency
C=CC[C@]1(O)CC[C@H]2[C@@H]3CCC4=CC(=O)CCC4=C3C=C[C@@]21C | inactive
C[C@H]1O[C@H](OC2[C@@H](O)[C@@H](O)C(O)[C@H](O)[C@H]2O)[C@@H](N)C[C@@H]1N=C(N)C(=O)O (stereo partly drawn) | inactive
CCCCCCCCn1sccc1=O | active: 4.09 µM and active: 1.35 µM
O=P(OCCCl)(OCCCl)OCCCl | inconclusive: 161 nM [cytotoxic, single point]
ClC(Cl)(Cl)c1ccccc1 | inactive
COP(N)(=O)SC (stereo not drawn) | inconclusive: 160 nM [cytotoxic, single point]
Cn1cc(-c2ccccc2)c(=O)c(-c2cccc(C(F)(F)F)c2)c1 | inconclusive: 44600 nM [cytotoxic, single point]
O=C(O)CCCOc1ccc(Cl)cc1Cl | inconclusive: 52300 nM [cytotoxic, single point]

experiment: p53 small molecule agonists, cell-based qHTS assay: qHTS cell viability counter screen (AID 1963581); conditions: p53RE-bla HCT-116 viability, ATP luminescence, 16 h; series mostly up to 66 µM
How it was run: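 Cytotoxicity read-out: ATP-based luminescence (CellTiter-Glo, 30 min RT) measured in the same wells as the p53 reporter assay, HCT-116 p53RE-bla cells, 16 h compound exposure at 37 C.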

Structure (SMILES) | Potency
C=CC[C@]1(O)CC[C@H]2[C@@H]3CCC4=CC(=O)CCC4=C3C=C[C@@]21C | inconclusive: 0.446 µM [cytotoxic, single point]
CCCCCCCCn1sccc1=O | active: 40.9 µM and active: 38.1 µM
O=P(OCCCl)(OCCCl)OCCCl | inconclusive: 4.04 µM [rising, partial curve, poor fit]
COc1ccc(-c2ccccc2)cc1NNC(=O)OC(C)C | inactive
N#C/C=C/C#N | inconclusive: 13.5 µM [cytotoxic, full curve, poor fit]
O=C(O)C1C(C(=O)O)C2(Cl)C(Cl)=C(Cl)C1(Cl)C2(Cl)Cl (stereo not drawn) | inactive
CN(C)c1ccc(N=O)cc1 | inconclusive: 11.5 µM [cytotoxic, single point]
Cn1cc(-c2ccccc2)c(=O)c(-c2cccc(C(F)(F)F)c2)c1 | inconclusive: 51.3 µM [rising, single point]
O=C(Nc1ccc2[nH]ccc2c1)c1cc2cc(F)ccc2n1Cc1cccc(F)c1 | inconclusive: 45.8 µM [cytotoxic, single point]
CNC(=O)O/N=C(\C)SC | inconclusive: 0.576 µM [rising, partial curve, poor fit]
